The text below walks through data of PubChem BioAssay AID493014 (National Center for Advancing Translational Sciences (NCATS), 2011).

This is one part of the list. These are further read-outs of the screen, such as a control signal, another cell line or another target. No call is given for them. Most of these compounds were active or inconclusive in the main read-out, so they are no random draw. Potencies come from curve fits of mixed quality, noted in brackets.

The nature of this test: qHTS Assay to Find Inhibitors of Chronic Active B-Cell Receptor Signaling. As to conditions: ABC-DLBCL IkBa-CBG/CBR reporter, luminescence ratio (green luciferase fused to IkBa over red control in TMD8 lymphoma cells), 4 h. The method in brief:
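TMD8 ABC-DLBCL cells carrying doxycycline-inducible green luciferase fused to IkappaBalpha plus unfused red luciferase were exposed to compounds (up to 46 uM) for 4 hrs at 37C. Activity came from the overlap-corrected green/red luminescence ratio.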

The mark [1] stands for this setting: measured here: CBR red luminescence, cell number.
The mark [2] stands for this setting: measured here: IkBa-CBG green luminescence.

Turning to `Cc1cc(C)c(NC(=O)CSc2nnc(CNC(=O)c3c(F)cccc3Cl)o2)c(C)c1`, under setting [1], the AC50 was 4.47 µM [rising, full curve, poor fit].

`O=C1CCc2cc(NS(=O)(=O)c3ccc(F)cc3)cc3c2N1CC3`: the AC50 under setting [1] is 11.6 µM [falling, partial curve, poor fit].

Take `CCc1nc2ccc(C(=O)N3CCN(c4ccccc4)CC3)cc2nc1CC`: the half-maximal activity concentration (AC50) under setting [2] was 14.1 µM [rising, partial curve, poor fit].

Regarding `C=CCn1c(=NC(=O)c2sc3ccccc3c2Cl)sc2cc(S(N)(=O)=O)ccc21`, under setting [1], the AC50 was 2.31 µM [rising, partial curve, poor fit].

`CCOC(=O)c1[nH]c(C)c(C(=O)Nc2ccccc2F)c1C`: under setting [1], the half-maximal activity concentration (AC50) was 14.6 µM [rising, partial curve].

Take `CCCCOc1ccccc1C1C(C(=O)OC)=CN(CC)C=C1C(=O)OC`: under setting [1], the AC50 was 22.4 µM [falling, single point].

With `CN1C(=O)C(=O)N(CC(=O)N2CCc3ccccc32)C1=O`, under setting [1], the AC50 is 29.1 µM [rising, single point].

In the case of `CCCCNC(=O)c1onc(CSc2ccc(F)c(F)c2)c1C(=O)O`, the AC50 under setting [1] is 2.82 µM [rising, partial curve, poor fit].

Take `CCOP(=O)(OCC)/C(=N/OC(=O)c1ccc(Cl)cc1Cl)C(N)=O`: under setting [1], the half-maximal activity concentration (AC50) is 35.5 µM [rising, single point].

For the compound `NC(=O)c1nsc(C(=O)N(CC(=O)NC2CCCCC2)c2cccc(F)c2)c1N`, the AC50 under setting [1] was 0.112 µM [falling, full curve, poor fit].

Turning to `CCOC(=O)c1cccc(NC(=O)CCc2c(C)nc3ncnn3c2C)c1`, under setting [1], the half-maximal activity concentration (AC50) is 28.2 µM [falling, partial curve, poor fit].

For `COc1ccc(/C=N/n2c(N)nc(-c3ccccc3)c2-c2ccccc2)cc1`, under setting [1], the AC50 was 5.62 µM [falling, partial curve].

For the compound `O=C(Nc1ccc(Oc2ccccc2)cc1)C1CC1`, the AC50 under setting [1] was 5.62 µM [rising, partial curve, poor fit].

`Oc1ccc(/C=N/NC(=S)Nc2cccnc2)c(O)c1`: the AC50 under setting [1] was 1.16 µM [falling, full curve].

Regarding `CCOc1ccccc1NC(=O)C1CCCN(S(=O)(=O)c2c(C)[nH]c(=O)[nH]c2=O)C1` (stereo unspecified), the AC50 under setting [1] was 0.103 µM [falling, full curve, poor fit].

As to `COc1ccc(CCNC(=O)c2cc(C)oc2C)cc1`, under setting [1], the AC50 was 14.1 µM [falling, partial curve, poor fit].

Regarding `CC(=O)N1N=C(c2ccc3ccccc3c2)OC1(C)C`, the AC50 under setting [1] was 6.51 µM [rising, full curve, poor fit].

For the compound `O=[N+]([O-])c1cccc(-c2noc(COc3ccccc3)n2)c1`, the AC50 under setting [1] was 1.12 µM [rising, full curve].

Consider `Cc1cccnc1NC(=O)c1ccc2c(c1)OCO2`, for which the AC50 under setting [1] was 23.1 µM [falling, single point].

As to `O=C(COc1ccc(/C=C2/NC(=O)NC2=O)cc1)Nc1ccc(F)cc1`, the AC50 under setting [1] is 7.94 µM [rising, partial curve].

`O=C(NCCN1CCOCC1)c1ccc2ccccc2n1`: the AC50 under setting [1] is 11.6 µM [rising, partial curve, poor fit].

For `N#Cc1c(NC(=O)C2CC(Cl)=CCC2C(=O)O)sc2c1CCCCC2` (stereo unspecified), under setting [1], the AC50 was 7.08 µM [falling, partial curve, poor fit].

Take `COc1cc(OC)c2ccc(=O)oc2c1C(CC(=O)N1CCCC1)c1ccc(N(C)C)cc1` (stereo unspecified): the concentration at half-maximal activity (AC50) under setting [1] is 2.51 µM [rising, full curve, poor fit].

As to `O=c1cc(-c2ccccc2)n2c(SCc3ccccc3)nnc2[nH]1`, under setting [1], the AC50 is 0.708 µM [falling, full curve, poor fit].

For `CCC(CC)NC(=O)c1cccc(Br)c1`, the AC50 under setting [1] is 11.2 µM [rising, single point].

Regarding `Cc1ccc(NC(=O)CSc2nc3ccccc3c(=O)n2CCCN2CCCCC2)cc1C`, the AC50 under setting [1] was 11.2 µM [falling, partial curve, poor fit].

Consider `Clc1ccc(/C(Cc2nc3ccccc3[nH]2)=N\Nc2ccccc2)cc1`, for which the AC50 under setting [1] was 15.8 µM [falling, single point].

Take `COc1cc(Cl)c(C)cc1NC(=O)CSc1nnc(-c2ccco2)n1CC(C)C`: the concentration at half-maximal activity (AC50) under setting [1] was 22.4 µM [falling, single point].

Regarding `C=CCn1c(Oc2ccccc2)nc2c1c(=O)n(C)c(=O)n2C`, under setting [1], the AC50 is 12.6 µM [falling, partial curve].

Turning to `Cc1cc(C)nc(N/N=C/c2sccc2C)n1`, the AC50 under setting [1] is 12.6 µM [falling, partial curve].

As for `O=C(COc1ccccc1F)NNC(=O)c1ccc(N2CCCCC2)c([N+](=O)[O-])c1`, the AC50 under setting [1] was 14.6 µM [rising, partial curve, poor fit].

`CCOC(=S)SCC(=O)N1CCc2cc(OC)ccc2C1C1C(=O)CCCC1=O` (stereo unspecified): the AC50 is 2.06 µM [falling, full curve, poor fit] under setting [1] and 20.6 µM [falling, partial curve, poor fit] under setting [2].

Take `CCOC(=O)N1CCN(C(=O)c2ccc3c(=O)n(CCC4=CCCCC4)c(=O)[nH]c3c2)CC1`: under setting [1], the AC50 is 10 µM [rising, partial curve, poor fit].

As for `O=C(NC(=S)Nc1cccc2cc(O)ccc12)c1ccccc1Br`, the AC50 under setting [1] is 0.398 µM [falling, full curve].

In the case of `CSc1nc2ccc(NC(=O)c3nn(C(C)C)c(=O)c4ccccc34)cc2s1`, the AC50 under setting [1] is 7.31 µM [rising, partial curve, poor fit].

In the case of `COc1ccccc1N(C)S(=O)(=O)c1ccc(C(=O)Nc2nccs2)cc1`, the half-maximal activity concentration (AC50) under setting [1] is 8.2 µM [falling, partial curve].

For the compound `Cc1ccc(-n2cc(C(=O)c3ccccc3O)cn2)cc1`, under setting [1], the AC50 was 7.94 µM [falling, partial curve].

Take `Cc1ccccc1N1C(=O)C2ON(c3ccccc3)C(c3ccco3)C2C1=O` (stereo unspecified): the AC50 under setting [1] was 11.2 µM [falling, partial curve, poor fit].

`COc1cccc(OC)c1C(=O)NC(=S)Nc1ccc2c(c1)C(=O)N(C)C2=O`: under setting [1], the concentration at half-maximal activity (AC50) is 29.1 µM [rising, single point].

Take `COc1ccc(Cl)cc1NC(=O)CN(C)C(=O)CCCc1c[nH]c2ccccc12`: under setting [1], the AC50 is 35.5 µM [falling, single point].

As to `CC(=O)Nc1cc(NC(C)=O)cc(C(=O)OCC(=O)N(c2ccccc2)C2CCS(=O)(=O)C2)c1` (stereo unspecified), the AC50 under setting [1] is 1.03 µM [falling, full curve, poor fit].

Turning to `CNc1nc(N2CCc3ccccc32)ncc1F`, under setting [1], the AC50 is 12.6 µM [rising, partial curve, poor fit].

For the compound `C=CCc1ccccc1OCC(=O)NNC(=S)NCc1ccccc1`, under setting [1], the AC50 is 2 µM [rising, full curve, poor fit].

In the case of `COc1ccc2c(=O)c(C(=O)NCCc3ccccc3)c[nH]c2c1`, the AC50 under setting [1] is 12.6 µM [falling, partial curve].

With `O=C(CNCC1CCCO1)N1CCCc2ccccc21` (stereo unspecified), the AC50 under setting [1] is 29.1 µM [rising, single point].

Consider `Cc1ccc(-n2nnc(-c3cnc4ccccc4c3)n2)cc1`, for which the AC50 under setting [1] is 10 µM [falling, partial curve].

As for `Cc1nc2ccccn2c1C(=O)NNC(=S)Nc1ccccc1`, under setting [1], the AC50 was 10 µM [falling, partial curve, poor fit].

For the compound `O=C(c1cccc(NS(=O)(=O)c2ccc(Br)cc2)c1)N1CCCCC1`, the half-maximal activity concentration (AC50) under setting [1] is 1.3 µM [falling, full curve, poor fit].

In the case of `CCOc1ccc(S(=O)(=O)NCCC(=O)NCCc2ccc(C(C)C)cc2)cc1`, the AC50 under setting [1] is 23.1 µM [falling, single point].

In the case of `CCn1c(C)nc2c(C)[n+](CC(=O)c3ccc(Br)cc3)ccc21`, the AC50 under setting [1] is 0.631 µM [falling, full curve, poor fit].

Turning to `COc1ccc(NC(=O)c2cccnc2)cc1`, under setting [1], the AC50 is 1.26 µM [rising, full curve, poor fit].

In the case of `COc1ccc(NS(=O)(=O)c2ccc(OC)c(N(C)S(=O)(=O)c3ccc(Cl)cc3)c2)cc1`, the AC50 under setting [1] was 4.47 µM [rising, partial curve, poor fit].

As to `c1ccc(CSc2ncnc3c2cnn3-c2ccccc2)cc1`, the AC50 under setting [1] was 0.0731 µM [rising, full curve, poor fit].

As for `COc1ccc(C(=O)N/N=C/c2sc3ccccc3c2O)cc1`, the AC50 under setting [1] was 16.4 µM [falling, partial curve] and the AC50 under setting [2] was 6.51 µM [falling, single point].

For `S=C(N/N=C/c1ccc(Cl)c(Cl)c1)Nc1ccccc1Cl`, the AC50 under setting [1] was 0.316 µM [falling, full curve].

With `CCOc1ccc(/C=C2\SC(=S)N(C(C(=O)O)c3ccccc3)C2=O)cc1OC` (stereo unspecified), under setting [1], the half-maximal activity concentration (AC50) was 35.5 µM [falling, single point].

`Cc1ccc2[nH]c3c(=S)nc[nH]c3c2c1`: the AC50 under setting [1] was 2.31 µM [rising, partial curve, poor fit].

On to `O=C1CC(c2ccccc2)CC(O)=C1C=Nc1ccc(O)cc1` (stereo unspecified), for which, under setting [1], the AC50 is 15.8 µM [falling, partial curve, poor fit].

For `Cc1cccc(/C=C(\c2nc3ccccc3[nH]2)S(=O)(=O)c2ccccc2)c1`, the AC50 under setting [1] is 2.31 µM [falling, partial curve].

As to `[O-][n+]1onc2c1CCc1c-2nn(-c2ccccc2Cl)[n+]1[O-]`, the AC50 under setting [1] was 17.8 µM [falling, partial curve, poor fit].

Regarding `Cc1cccc(C)c1NC(=O)CN(c1ccccn1)S(=O)(=O)c1ccc(F)cc1`, the AC50 under setting [1] was 35.5 µM [rising, single point].

Consider `Cc1cccc(C(=O)Nc2ccc3c(c2)C(=O)NC3=O)c1`, for which, under setting [1], the AC50 was 35.5 µM [falling, single point].

For `Cc1cc(Br)ccc1OCc1nc(-c2cccnc2)no1`, the AC50 under setting [1] was 29.1 µM [rising, single point].

For `CC(=O)Nc1ccc(S(=O)(=O)NCCNC(=O)c2ccccc2F)cc1`, the AC50 under setting [1] is 20.6 µM [rising, partial curve, poor fit].
